In the experiment the test system is L1210 leukemia ip in BDF1 mice, survival T/C. In words: NCI In Vivo Anticancer Drug Screen. Data for tumor model L1210 Leukemia (intraperitoneal) in B6D2F1 (BDF1) mice. The following applies: T/C endpoint: mean survival time, higher T/C = longer survival.
The mark [1] stands for this setting: dose: 400.0 mg/kg/injection, schedule: Q04DX002 (ip), vehicle: saline with Tween-80.
[2] abbreviates: dose: 100.0 mg/kg/injection, schedule: Q04DX003 (ip), vehicle: saline.
Where [3] appears, read: dose: 200.0 mg/kg/injection, schedule: Q04DX003 (ip), vehicle: saline.
Setting [4] is: dose: 400.0 mg/kg/injection, schedule: Q04DX003 (ip), vehicle: saline.
The mark [5] stands for this setting: dose: 200.0 mg/kg/injection, schedule: Q04DX003 (ip), vehicle: Klucel (hydroxypropylcellulose) (HPC).
Setting [6] is: dose: 400.0 mg/kg/injection, schedule: Q04DX003 (ip), vehicle: Klucel (hydroxypropylcellulose) (HPC).
Where [7] appears, read: dose: 50.0 mg/kg/injection, schedule: Q01DX009 (ip), vehicle: Klucel (hydroxypropylcellulose) (HPC).
Setting [8] is: dose: 100.0 mg/kg/injection, schedule: Q01DX009 (ip), vehicle: Klucel (hydroxypropylcellulose) (HPC).
Where [9] appears, read: dose: 400.0 mg/kg/injection, schedule: Q04DX003 (ip), vehicle: water.
Where [10] appears, read: dose: 100.0 mg/kg/injection, schedule: Q04DX003 (ip), vehicle: Klucel (hydroxypropylcellulose) (HPC).
The mark [11] stands for this setting: dose: 400.0 mg/kg/injection, schedule: Q01DX001 (ip), vehicle: saline.

The source of these data is PubChem BioAssay AID248 (DTP/NCI, 2004).

The list shows only some results of the screen, not a fair sample: it gathers tests that were run many times, whatever their T/C, doses with no T/C, and many T/C values between a quarter and a half above the control. Further doses and runs are listed elsewhere. T/C is the treated group as % of the vehicle group. Some doses have a count of surviving animals in place of a T/C: the source holds a T/C of zero for them, seemingly a mark for toxic or unscored doses. Some doses without a T/C left all or most animals alive at the check, yet need not have been tolerated: the source hardly ever lists a survival T/C far under the control, and the zero likely stands for such cases as well. Survivors were counted at the toxicity check, usually on the fifth day, unless a day is given; later deaths do not show. Schedule codes are those of the source, taken here to give the interval after Q, in days (D) or hours (H), and the number of doses after X. Some schedules carry Z or #; the key to these is not given. For survival time, this PubChem deposit counts one and a half times the control or more as active, and values a quarter to a half above the control carry no call in these data; other NCI protocols may use other cut-offs.

Consider `CCCCC(=O)OCC1OC(n2cnc3c(=S)nc[nH]c32)C(OC(=O)CCCC)C1OC(=O)CCCC` (stereo not drawn), for which the T/C (dose: 100.0 mg/kg/injection, schedule: Q01DX Z (ip), vehicle: carboxymethylcellulose (CMC)) is 146 % of control and the T/C (dose: 200.0 mg/kg/injection, schedule: Q01DX015 (ip), vehicle: carboxymethylcellulose (CMC)) is 131 % of control. Moreover, the survivor count is 4 of 6 (dose: 400.0 mg/kg/injection, schedule: Q01DX015 (ip), vehicle: carboxymethylcellulose (CMC)); 0 of 6 (dose: 800.0 mg/kg/injection, schedule: Q01DX015 (ip), vehicle: carboxymethylcellulose (CMC)); 4 of 6 (dose: 800.0 mg/kg/injection, schedule: Q01DX Z (ip), vehicle: carboxymethylcellulose (CMC)).
Take `Cc1cccc(NC(=S)NCCc2ccccn2)c1`: under setting [1], the survivor count is given as 2 of 3.
For the compound `CNCCCC1c2ccccc2C=Cc2ccccc21`, the survivor count by setting is: (dose: 50.0 mg/kg/injection, schedule: Q01DX009 (ip), vehicle: saline) 2 of 6; under setting [2], 2 of 4; under setting [3], 0 of 4; under setting [4], 0 of 4.
As for `c1ccc(-c2cc(-c3ccccc3)[o+]c(-c3ccccc3)c2)cc1`, the survivor count is, setting by setting: (dose: 25.0 mg/kg/injection, schedule: Q04DX003 (ip), vehicle: saline with Tween-80) 6 of 6; (dose: 50.0 mg/kg/injection, schedule: Q04DX003 (ip), vehicle: saline with Tween-80) 6 of 6; (dose: 100.0 mg/kg/injection, schedule: Q04DX003 (ip), vehicle: saline with Tween-80) 5 of 6.
Regarding `Cc1ccc2cccc(O)c2n1`, the survivor count is 3 of 3 (dose: 50.0 mg/kg/injection, schedule: Q04DX002 (ip), vehicle: Klucel (hydroxypropylcellulose) (HPC)); 3 of 3 (dose: 100.0 mg/kg/injection, schedule: Q04DX002 (ip), vehicle: Klucel (hydroxypropylcellulose) (HPC)); 3 of 3 (dose: 200.0 mg/kg/injection, schedule: Q04DX002 (ip), vehicle: Klucel (hydroxypropylcellulose) (HPC)).
In the case of `c1ccc(C2=C(c3ccccc3)NC(c3ccccc3)N2)cc1`, the survivor count was 1 of 6 under setting [5] and 0 of 6 under setting [6].
On to `Cc1c2oc3c(C)ccc(C(=O)OCCN4CCCCC4)c3nc-2c(C(=O)OCCN2CCCCC2)c(N)c1=O`, for which, under setting [1], the survivor count is reported as 1 of 3.
As to `S=C=NCc1ccc(Cl)cc1`, the survivor count reads like this: (dose: 25.0 mg/kg/injection, schedule: Q01DX009 (ip), vehicle: Klucel (hydroxypropylcellulose) (HPC)) 3 of 3; under setting [7], 3 of 3; under setting [8], 0 of 3.
Take `CCCC[N+](CCCC)=c1cc(-c2ccc(Cl)cc2)ss1`: the survivor count is given as 4 of 6 (dose: 50.0 mg/kg/injection, schedule: Q01DX009 (ip), vehicle: water); 0 of 6 (dose: 100.0 mg/kg/injection, schedule: Q01DX009 (ip), vehicle: water); 0 of 6 (dose: 200.0 mg/kg/injection, schedule: Q01DX009 (ip), vehicle: water); 0 of 6 (dose: 300.0 mg/kg/injection, schedule: Q01DX009 (ip), vehicle: water); 0 of 6 under setting [9].
As to `O=C1OC(O)C(Cl)=C1Cl` (stereo not drawn), the survivor count is, setting by setting: (dose: 100.0 mg/kg/injection, schedule: Q04DX002 (ip), vehicle: saline with Tween-80) 0 of 3; (dose: 200.0 mg/kg/injection, schedule: Q04DX002 (ip), vehicle: saline with Tween-80) 0 of 3; under setting [1], 0 of 3.
Take `CC(C)(C)NCCC(=O)c1ccccc1`: the survivor count is listed as 1 of 6 under setting [2], 0 of 6 under setting [3] and 0 of 6 under setting [4].
With `CC1CCC(NC(=O)NCCCl)c2ccccc21` (stereo not drawn), the survivor count is on record as 6 of 6 under setting [10], 3 of 6 under setting [5] and 3 of 6 under setting [6].
Regarding `NNC(=O)c1ccc(Cl)cc1Cl`, the survivor count is, setting by setting: under setting [7], 0 of 6; under setting [10], 1 of 6; under setting [5], 0 of 6; under setting [6], 0 of 6.
Take `O=[N+]([O-])c1ccc(C2SCSCS2)cc1`: the survivor count under setting [8] is recorded as 6 of 6.
With `FC(F)(F)C1=NC(=S)C(c2[nH]c(C(F)(F)F)nc2S)=N1`, for the setting “dose: 400.0 mg/kg/injection, schedule: Q01DX009 (ip), vehicle: water”, the survivor count is reported as 1 of 6.
On to `CC1CCCCN1C(=O)Nc1cccc(C(F)(F)F)c1` (stereo not drawn), for which the survivor count by setting is: (dose: 100.0 mg/kg/injection, schedule: Q04DX002 (ip), vehicle: gum acacia) 3 of 3; (dose: 200.0 mg/kg/injection, schedule: Q04DX003 (ip), vehicle: gum acacia) 3 of 3.
For `CCCCN(C)/N=N/c1nc[nH]c1C(=O)OC`, under “dose: 100.0 mg/kg/injection, schedule: Q01DX015 (ip), vehicle: carboxymethylcellulose (CMC)”, the survivor count was 6 of 6.
`CC(=O)OCC1OC(O)C(NC(=O)C(F)(F)F)C(OC(C)=O)C1OC(C)=O` (stereo not drawn): the survivor count runs as follows: (dose: 50.0 mg/kg/injection, schedule: Q04DX003 (ip), vehicle: saline) 2 of 6; under setting [2], 0 of 6; under setting [3], 0 of 6; under setting [4], 0 of 6.
Take `O=C1C2=C(CCC2)c2ccccc21`: the survivor count under setting [11] is 3 of 6.
For `CCOC(=O)CSc1ccc2c3c(cccc13)C(=O)OC2=O`, the survivor count is 3 of 6 (dose: 175.0 mg/kg/injection, schedule: Q01DX009 (ip), vehicle: other) and 2 of 6 (dose: 350.0 mg/kg/injection, schedule: Q01DX009 (ip), vehicle: other).
Turning to `CCCCCCCCCCCCOCC[N+](C/C=C/c1ccccc1)(CCO)CCO`, under “dose: 25.0 mg/kg/injection, schedule: Q01DX009 (ip), vehicle: saline with Tween-80”, the survivor count is 2 of 6.
`O=C1C=C(Cl)C(=O)c2ccccc21`: the survivor count by setting is: (dose: 18.75 mg/kg/injection, schedule: Q01DX001 (ip), vehicle: steroid suspending solution) 3 of 6; (dose: 37.5 mg/kg/injection, schedule: Q01DX001 (ip), vehicle: steroid suspending solution) 0 of 6.
As to `[NH-]CC([NH-])=O.[NH-]CC([NH-])=O.[Ni]`, the survivor count (dose: 25.0 mg/kg/injection, schedule: Q01DX009 (ip), vehicle: water) is reported as 3 of 6; the survivor count (dose: 100.0 mg/kg/injection, schedule: Q04DX003 (ip), vehicle: water) is on record as 2 of 6; the survivor count (dose: 200.0 mg/kg/injection, schedule: Q04DX003 (ip), vehicle: water) was 0 of 6; the survivor count under setting [9] is given as 0 of 6.
`O=C1CN(Br)C(=O)N1Br`: the survivor count (dose: 400.0 mg/kg/injection, schedule: Q01DX009 (ip), vehicle: saline) is listed as 2 of 6.
In the case of `NCCCC(N)C(=O)NCCCCCCCCCCNC(=O)C(N)CCCN` (stereo not drawn), the survivor count reads like this: (dose: 100.0 mg/kg/injection, schedule: Q01DX Z (ip), vehicle: saline) 0 of 6; (dose: 300.0 mg/kg/injection, schedule: Q01DX Z (ip), vehicle: saline) 0 of 6.
As for `CC1(CO)CCCC2(C)c3cc(O)ccc3CCC12` (stereo not drawn), the survivor count by setting is: (dose: 50.0 mg/kg/injection, schedule: Q01DX009 (ip), vehicle: acetone) 6 of 6; (dose: 200.0 mg/kg/injection, schedule: Q01DX009 (ip), vehicle: acetone) 6 of 6.
As for `Oc1ccc(/C=N\Nc2ccccn2)c(O)c1`, the survivor count (dose: 400.0 mg/kg/injection, schedule: Q01DX009 (ip), vehicle: Klucel (hydroxypropylcellulose) (HPC)) is on record as 1 of 6.
In the case of `CCOC(=N)/C=C/c1ccccc1`, the survivor count by setting is: (dose: 100.0 mg/kg/injection, schedule: Q01DX001 (ip), vehicle: saline) 0 of 6; (dose: 200.0 mg/kg/injection, schedule: Q01DX001 (ip), vehicle: saline) 0 of 6; under setting [11], 0 of 6.
